# Measurements reported in PubChem BioAssay AID1259308 (NCATS, 2017).
# Purpose: 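Candidate targets for better recombinant protein yield in mammalian cells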 (primary screen)
# System: human HEK293 embryonic kidney cells stably expressing firefly luciferase (HEK-CMV-Luc2-Hygro)
# Knock-down reagent: single siRNA against human genes, 0.8 pmol siRNA per well
# Duration: 72 h
# Measurement: 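Luciferase light (ONE-Glo) measured on one replicate plate set and viability (CellTiter-Glo) on the other, scaled to a negative control siRNA, with robust z-scores and luciferase per cell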
# Direction: total luciferase, z-score and total luciferase, % of control: higher = more reporter protein produced; luciferase per cell, z-score: higher = more reporter output per viable cell; viable cells, % of control: higher = more viable cells
# Hit rule: 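An siRNA counts as active if its total luciferase robust z-score exceeds 3; genes with two or more such siRNAs out of three were retested with fresh siRNAs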
# Calls: active = raised luciferase; inactive = no rise
# The whole screen tested about 59,000 reagents; below is a random part of them. About 1,510 of all reagents (2.6%) were called active. 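Calls use total luciferase alone and ignore viability, so some active siRNAs may act by altering cell number.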 Unmarked entries are inactive. The numbers tell different reagents against one gene apart. No sequences are given here.
gene symbol,siRNA no.,"total luciferase, z-score","total luciferase, % of control","luciferase per cell, z-score","viable cells, % of control"
ZNF280C,1,-0.992,62.2,-1.56,105
ZNF280C,2,-0.494,72.1,-0.218,85.3
ZNF280C,3,0.0679,83.2,0.127,90
CPOX,1,0.31,88.1,-0.168,103
CPOX,2,-0.356,74.8,-0.745,102
CPOX,3,-0.509,71.8,-1.25,111
SEMA3F,1,0.38,89.4,-0.187,105
SEMA3F,2,2.8,138,1.64,100
SEMA3F,3,0.147,84.8,-0.644,112
CCR4,1,0.112,84.1,-0.132,97.3
CCR4,2,-0.37,74.5,-0.499,95
CCR4,3,-1.27,56.7,-1.12,85.1
REELD1,1,-0.461,72.7,-0.321,88.4
REELD1,2,0.219,86.2,0.49,84.7
REELD1,3,1.21,106,0.706,98.3

The list goes on, starting with the last 2 of the part before.
gene symbol,siRNA no.,"total luciferase, z-score","total luciferase, % of control","luciferase per cell, z-score","viable cells, % of control"
REELD1,2,0.219,86.2,0.49,84.7
REELD1,3,1.21,106,0.706,98.3
ZNF830,1,-0.142,79.1,-0.618,104
ZNF830,2,-0.642,69.1,-0.692,92.7
ZNF830,3,0.0499,82.9,0.124,89.6
LOC155060,1,2.16,125,2.13,79.6
LOC155060,2,0.794,97.7,1.01,83.7
LOC155060,3,0.0234,82.4,-0.183,96.6
GPD1,1,1.14,105,0.473,103
GPD1,2,-0.561,70.7,-0.819,98
GPD1,3,0.111,84.1,-0.282,101
